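Primary screen of methionyl-tRNA synthetase; the read-out is not stated. Target: Methionyl-tRNA synthetase (putative), Leishmania donovani (UniProt E9BF75). The test concentration is not given. The values are filed as inhibition. Size under these conditions: about 68,000 compounds, about 24 of them at 50% or above in at least one test.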

Amino acid sequences for entries named in this document (tags omitted).
UniProt E9BF75, entry or part of it: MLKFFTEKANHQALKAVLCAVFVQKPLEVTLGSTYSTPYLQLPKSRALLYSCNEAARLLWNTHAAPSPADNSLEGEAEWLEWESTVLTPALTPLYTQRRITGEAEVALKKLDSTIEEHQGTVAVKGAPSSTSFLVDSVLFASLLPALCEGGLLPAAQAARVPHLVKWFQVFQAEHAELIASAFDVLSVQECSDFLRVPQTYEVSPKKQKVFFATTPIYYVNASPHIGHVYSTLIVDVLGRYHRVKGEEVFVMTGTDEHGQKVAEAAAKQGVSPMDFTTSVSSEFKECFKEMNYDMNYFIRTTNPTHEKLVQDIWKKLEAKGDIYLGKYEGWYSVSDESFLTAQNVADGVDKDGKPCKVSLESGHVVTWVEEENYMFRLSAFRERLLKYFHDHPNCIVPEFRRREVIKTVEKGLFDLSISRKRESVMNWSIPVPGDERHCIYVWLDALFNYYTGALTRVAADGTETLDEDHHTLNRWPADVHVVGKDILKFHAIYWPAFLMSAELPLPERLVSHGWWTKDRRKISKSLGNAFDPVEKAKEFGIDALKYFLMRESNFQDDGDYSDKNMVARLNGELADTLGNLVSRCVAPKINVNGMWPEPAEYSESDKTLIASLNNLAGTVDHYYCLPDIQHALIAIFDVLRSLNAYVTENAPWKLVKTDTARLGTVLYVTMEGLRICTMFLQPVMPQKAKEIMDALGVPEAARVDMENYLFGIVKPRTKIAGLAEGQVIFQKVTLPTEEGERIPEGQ

All values are in %.
The record does not define 0% and 100%; most values in the screen are far below 50% and negative numbers occur (in some assays of this library far below -100).
Compounds were drawn at random from those tested, without regard to their results.

* Cc1nc(CN(C)C(=O)Nc2cccc(C)c2C)no1 : 14.4%
* COCCC(=O)N1CCC2(COCc3cnc(-c4ccccc4)nc32)C1 (stereo not shown) : 8.014%
* CN(C)C(CNS(=O)(=O)c1ccc(F)cc1F)c1cccn1C (stereo not shown) : 11.33%
* CCC1CN(Cc2ccccc2)CCN1Cc1nnc(C2CCC2)o1 (stereo not shown) : 9.36%
* Cc1ccc(N2N=C(C(=O)NCC3CC3)S(=O)(=O)c3cccnc32)cc1 : 3.927%
* CCN1CCOCC2(C1)CN(C(=O)c1c(C)noc1C)CCO2 (stereo not shown) : 16.62%
* CCN1C(=O)C(c2ccccc2)CC12CCN(Cc1cccnc1)CC2 (stereo not shown) : -2.222%
* CS(=O)(=O)N1CCC(Oc2ccc(C(=O)NCC3CCC3)cc2Cl)CC1 : 13.11%
* c1cnc(N2C[C@H]3CCN(CCN4CCCC4)C[C@H]3C2)cn1 : 2.933%
* Fc1ccccc1C1NCCc2cc3c(cc21)OCCO3 (stereo not shown) : 14.32%
* CN(C)c1ncnc2c1CCN(CC1CCOC1)CC2 (stereo not shown) : 15.82%
* CN(C)C(=O)CN1C[C@@H]2CC[C@H](C1)N(C(=O)CCn1cncn1)C2 : 16.3%
* COc1ccc(OCc2nc(C(=O)N3CCC(NC(C)=O)C3)co2)cc1 (stereo not shown) : 10.7%
* COCCN1CCC(NCc2c(C(C)C)nn(C)c2N(C)C)CC1 : 4.192%
* COc1cc(N2CCN(Cc3ccsc3)C(CCO)C2)nc(N)n1 (stereo not shown) : 12.54%
* CC(C)c1nc(CN(C)C2CCN(CC(F)(F)F)C2)no1 (stereo not shown) : 12.32%
* O=S(=O)(C1CC1)N1CCOC2(CCCN(c3ccccc3)C2)C1 (stereo not shown) : 5.263%
* Cc1cccc(CN2CCC3(CCCN(C(=O)NC(C)C)C3)C2=O)n1 (stereo not shown) : 11.35%
* CS(=O)(=O)NCC1(O)CCCN(C(=O)CCn2cc(Cl)cn2)CC1 (stereo not shown) : 16.1%
* COCc1nc(C(=O)NS(=O)(=O)c2ccc(C)c(C)c2)cs1 : 1.031%
* O=C([C@H]1C[C@H]2OCC[C@H]2N(CC2CCOCC2)C1)N1CCCC1 : 9.343%
* CCc1ncc2c(n1)CN(CC(=O)NC1CCCCNC1=O)CC2 (stereo not shown) : 13.17%
* Cc1nc(-c2ccncc2)ncc1C(C)NC(=O)C1=NN(C)C(=O)CC1 (stereo not shown) : 6.138%
* Cn1c(C2CC2)nc2c1CCN(Cc1nc3ccccc3s1)C2 : 18.61%
* COc1ccccc1C1(CNCc2cccc(C#N)c2)CCOCC1 : 18.77%
* NC(=O)CN(C(=O)Cc1ccc(C(F)(F)F)cc1)C1CCCC1 : 13.69%
* Cc1nc2c(c(N3CCCC(OCc4ccccn4)C3)n1)CCNCC2 (stereo not shown) : 7.572%
* O=C(c1ccc(S(=O)(=O)NCC(F)F)cc1)N1CC[C@H]2CNC[C@H]21 : 5.279%
* COCC1CN(C(=O)c2cccn2C)Cc2c1cnn2CC1CC1 (stereo not shown) : 18.44%
* CCC(C)(NCc1nnc(C(C)(C)C)o1)c1nccs1 (stereo not shown) : 11.59%
* O=C(C1CCCC1)N1CCO[C@@H]2CNC[C@@H]21 : 2.256%
* Cn1nc2c(cc1=O)CN(Cc1nc(C(C)(C)C)no1)CC2 : 13.99%
* C=C(C)CNC(C)c1ccc(S(C)(=O)=O)c(F)c1 (stereo not shown) : 1.344%
* COc1ccc(NC(=O)Cn2c(=O)nc(N)c3cc(C)sc32)cc1 : 11.63%
* O=C(c1cnc(-c2cccnc2)nc1)N1CCSCC1 : 10.59%
* CCc1nnc2ccc(N3CCN(S(=O)(=O)c4ccc(C)s4)CC3)nn12 : 22.82%
* COc1cccc(N2CCN(Cc3ccc4occc4c3)CC2=O)c1 : 16.9%
* CCN1CCN(C(=O)c2cccn2Cc2ccccc2)CC1 : 12.05%
* CN(C)c1cc(C(=O)Nc2ccccc2C(=O)NC(C)(C)C)ccn1 : 16.77%
* COC(=O)C1CCN(c2cncc(-n3nc(C)cc3C)n2)CC1 : 16.19%
* CN(C)C(=O)N1CCC2(CC1)C(c1cnn(C)c1)CC(=O)N2C (stereo not shown) : 12.67%
* CCCN1CCCC1c1ccc(C(=O)N2CCOCC2)s1 (stereo not shown) : 7.904%
* CNC(=O)CCN1CCC(c2nnc(Cn3cccn3)n2C2CC2)CC1 : 11.61%
* COc1ccc(OCCN2CCC(c3ccnn3CCO)CC2)cc1 : 17.14%
* Cc1nc(-c2cc(C(=O)O)co2)cs1 : 9.946%
* O=C1OC2(CCNCC2)CN1CC(=O)N1CCC1c1cccs1 (stereo not shown) : 7.117%
* CCn1ccnc1CN1CCCN(C(=O)COC2CCCCC2)CC1 : 12.89%
* O=C1NCC(CN2CCc3onc(-c4ccc(C(F)(F)F)cc4)c3C2)O1 (stereo not shown) : 19.73%

For reference, 5 entries once more:

{"compound": "CN(C)c1cc(C(=O)Nc2ccccc2C(=O)NC(C)(C)C)ccn1", "inhibition": 16.77}
{"compound": "COCCN1CCC(NCc2c(C(C)C)nn(C)c2N(C)C)CC1", "inhibition": 4.192}
{"compound": "CS(=O)(=O)N1CCC(Oc2ccc(C(=O)NCC3CCC3)cc2Cl)CC1", "inhibition": 13.11}
{"compound": "Cc1nc(-c2ccncc2)ncc1C(C)NC(=O)C1=NN(C)C(=O)CC1", "stereo": "stereo not shown", "inhibition": 6.138}
{"compound": "O=C([C@H]1C[C@H]2OCC[C@H]2N(CC2CCOCC2)C1)N1CCCC1", "inhibition": 9.343}

Source: ChEMBL document CHEMBL3988442, “University of Dundee, Small-Polar-MMV Screening Library” (2021).